# From the supplement of paper PMC8728848
# Some of the results follow.
# B1: SP15308F-bth-333-19-333 (Bacteroides thetaiotaomicron) (protein)
# chain: SCNNEWESEQYVQMVSFKAPVNAQGVTPIYIRYKPEGKVTYQLPLIVSGSTMNSKDLNVHVGLDLDTLDVLNVEHFGSRKELFFKPLENKYYEFPETVQIPAGECTSLLPIDFALKDLDQVDKWVLPLAIQSNDPSHNYQANPRKFYRRAMLRISPFNDYSGQYSATAYKVYFKGNEKEAIVPEYHTSYVIDDKTIFFYAGLIDIDRLDRKYYKIKFEFTEEKIDLQTRKLKISSDNEDINLVVKGQPSYTVEEEMDATRPYLKHIYVTINNLEYEFTDYTSVPGYPLEYVVKGSLTMERKINTQIPDEDQAIEW
# Key:
# Test in all cases: glycan array binding signal (z-score within array); higher = stronger binding
# Conditions in all cases: glycan notation: IUPAC condensed, linker removed
# [1] = target: Gal(b1-4)GlcNAc(b1-3)Gal(b1-4)GlcNAc(b1-3)Gal(b1-4)GlcNAc(b1-3)Gal(b1-4)GlcNAc(b1-2)Man(a1-3)[Gal(b1-4)GlcNAc(b1-3)Gal(b1-4)GlcNAc(b1-3)Gal(b1-4)GlcNAc(b1-3)Gal(b1-4)GlcNAc(b1-2)Man(a1-6)]Man(b1-4)GlcNAc(b1-4)[Fuc(a1-6)]GlcNAc
# Procedure, shortened: (§1)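 Arrays were curated from the Consortium for Functional Glycomics database, 3228 in total, and kept only where the protein sequence was available. Binding is expressed as a within-array Z-score. This score was averaged across arrays of the same protein sequence at different concentrations or buffers and across linkers, and negative values can be read as non-binding.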
# [2] = target: Gal(b1-4)GlcNAc(b1-3)Gal(b1-4)GlcNAc(b1-3)Gal(b1-4)GlcNAc(b1-3)Gal(b1-4)GlcNAc(b1-2)[Gal(b1-4)GlcNAc(b1-3)Gal(b1-4)GlcNAc(b1-3)Gal(b1-4)GlcNAc(b1-3)Gal(b1-4)GlcNAc(b1-6)]Man(a1-6)[Gal(b1-4)GlcNAc(b1-3)Gal(b1-4)GlcNAc(b1-3)Gal(b1-4)GlcNAc(b1-3)Gal(b1-4)GlcNAc(b1-2)Man(a1-3)]Man(b1-4)GlcNAc(b1-4)[Fuc(a1-6)]GlcNAc
# Procedure, shortened: as §1
# [3] = target: Gal(b1-4)GlcNAc(b1-3)Gal(b1-4)GlcNAc(b1-3)Gal(b1-4)GlcNAc(b1-3)Gal(b1-4)GlcNAc(b1-3)Gal(b1-4)GlcNAc(b1-2)Man(a1-3)[Gal(b1-4)GlcNAc(b1-3)Gal(b1-4)GlcNAc(b1-3)Gal(b1-4)GlcNAc(b1-3)Gal(b1-4)GlcNAc(b1-3)Gal(b1-4)GlcNAc(b1-2)Man(a1-6)]Man(b1-4)GlcNAc(b1-4)GlcNAc
# Procedure, shortened: as §1
# [4] = target: Gal(b1-4)GlcNAc(b1-3)Gal(b1-4)GlcNAc(b1-3)Gal(b1-4)GlcNAc(b1-3)Gal(b1-4)GlcNAc(b1-3)Gal(b1-4)GlcNAc(b1-2)Man(a1-3)[Gal(b1-4)GlcNAc(b1-3)Gal(b1-4)GlcNAc(b1-3)Gal(b1-4)GlcNAc(b1-3)Gal(b1-4)GlcNAc(b1-3)Gal(b1-4)GlcNAc(b1-2)Man(a1-6)]Man(b1-4)GlcNAc(b1-4)[Fuc(a1-6)]GlcNAc
# Procedure, shortened: as §1
# [5] = target: Gal(b1-4)GlcNAc(b1-3)Gal(b1-4)GlcNAc(b1-3)Gal(b1-4)GlcNAc(b1-3)Gal(b1-4)GlcNAc(b1-3)Gal(b1-4)GlcNAc(b1-2)[Gal(b1-4)GlcNAc(b1-3)Gal(b1-4)GlcNAc(b1-3)Gal(b1-4)GlcNAc(b1-3)Gal(b1-4)GlcNAc(b1-3)Gal(b1-4)GlcNAc(b1-6)]Man(a1-6)[Gal(b1-4)GlcNAc(b1-3)Gal(b1-4)GlcNAc(b1-3)Gal(b1-4)GlcNAc(b1-3)Gal(b1-4)GlcNAc(b1-3)Gal(b1-4)GlcNAc(b1-2)Man(a1-3)]Man(b1-4)GlcNAc(b1-4)[Fuc(a1-6)]GlcNAc
# Procedure, shortened: as §1
# [6] = target: Gal(b1-4)GlcNAc(b1-3)Gal(b1-4)GlcNAc(b1-3)Gal(b1-4)GlcNAc(b1-3)Gal(b1-4)GlcNAc(b1-3)Gal(b1-4)GlcNAc(b1-3)Gal(b1-4)GlcNAc(b1-2)Man(a1-3)[Gal(b1-4)GlcNAc(b1-3)Gal(b1-4)GlcNAc(b1-3)Gal(b1-4)GlcNAc(b1-3)Gal(b1-4)GlcNAc(b1-3)Gal(b1-4)GlcNAc(b1-3)Gal(b1-4)GlcNAc(b1-2)Man(a1-6)]Man(b1-4)GlcNAc(b1-4)GlcNAc
# Procedure, shortened: as §1
# [7] = target: Gal(b1-4)GlcNAc(b1-3)Gal(b1-4)GlcNAc(b1-3)GalNAc
# Procedure, shortened: as §1
# [8] = target: Gal(b1-4)GlcNAc(b1-3)Gal(b1-4)GlcNAc(b1-3)[Gal(b1-4)GlcNAc(b1-3)Gal(b1-4)GlcNAc(b1-6)]GalNAc
# Procedure, shortened: as §1
# [9] = target: Gal(b1-4)GlcNAc(b1-3)Gal(b1-4)GlcNAc(b1-6)[Gal(b1-3)]GalNAc
# Procedure, shortened: as §1
# [10] = target: Gal(b1-4)GlcNAc(b1-3)Gal(b1-4)[Fuc(a1-3)]GlcNAc(b1-3)Gal(b1-4)[Fuc(a1-3)]GlcNAc
# Procedure, shortened: as §1
# [11] = target: Gal(b1-4)GlcNAc(b1-3)GalNAc
# Procedure, shortened: as §1
# [12] = target: Gal(b1-4)GlcNAc(b1-3)[Fuc(a1-3)GlcNAc(b1-6)]Gal(b1-4)Glc
# Procedure, shortened: as §1
# [13] = target: Gal(b1-4)GlcNAc(b1-3)[Gal(b1-4)GlcNAc(b1-6)]Gal(b1-4)GlcNAc
# Procedure, shortened: as §1
# [14] = target: Gal(b1-4)GlcNAc(b1-3)[GlcNAc(b1-6)]Gal(b1-4)GlcNAc
# Procedure, shortened: as §1
# [15] = target: Gal(b1-4)GlcNAc(b1-6)Gal(b1-4)GlcNAc
# Procedure, shortened: as §1
# [16] = target: Gal(b1-4)GlcNAc(b1-6)GalNAc
# Procedure, shortened: as §1
# [17] = target: Gal(b1-4)GlcNAc(b1-6)[Gal(b1-3)]GalNAc
# Procedure, shortened: as §1
# [18] = target: Gal(b1-4)GlcNAc(b1-6)[Gal(b1-4)GlcNAc(b1-3)]GalNAc
# Procedure, shortened: as §1
# Gal(b1-4)GlcNAc6P = target: Gal(b1-4)GlcNAc6P
# Procedure, shortened: as §1
# Gal(b1-6)Gal = target: Gal(b1-6)Gal
# Procedure, shortened: as §1
# Gal3S(b1-3)GalNAc = target: Gal3S(b1-3)GalNAc
# Procedure, shortened: as §1
# Gal3S(b1-3)GlcNAc = target: Gal3S(b1-3)GlcNAc
# Procedure, shortened: as §1
# [19] = target: Gal3S(b1-3)[Fuc(a1-4)]GlcNAc
# Procedure, shortened: as §1
binder,measurement,setting,value
B1,glycan array binding signal (z-score),[1],-0.059
same,glycan array binding signal (z-score),[2],0.077
same,glycan array binding signal (z-score),[3],3.23
same,glycan array binding signal (z-score),[4],1.33
same,glycan array binding signal (z-score),[5],1.21
same,glycan array binding signal (z-score),[6],0.041
same,glycan array binding signal (z-score),[7],0.082
same,glycan array binding signal (z-score),[8],0.86
same,glycan array binding signal (z-score),[9],-0.045
same,glycan array binding signal (z-score),[10],0.753
same,glycan array binding signal (z-score),[11],-1.06
same,glycan array binding signal (z-score),[12],-0.005
same,glycan array binding signal (z-score),[13],-0.437
same,glycan array binding signal (z-score),[14],0.081
same,glycan array binding signal (z-score),[15],-0.409
same,glycan array binding signal (z-score),[16],1.64
same,glycan array binding signal (z-score),[17],-0.606
same,glycan array binding signal (z-score),[18],0.65
same,glycan array binding signal (z-score),Gal(b1-4)GlcNAc6P,-1.08
same,glycan array binding signal (z-score),Gal(b1-6)Gal,-0.244
same,glycan array binding signal (z-score),Gal3S(b1-3)GalNAc,-0.437
same,glycan array binding signal (z-score),Gal3S(b1-3)GlcNAc,1.07
same,glycan array binding signal (z-score),[19],-0.119

# Some of the entries above, reformatted:
binder | measurement | setting | value
B1 | glycan array binding signal (z-score) | [2] | 0.077
same | glycan array binding signal (z-score) | [18] | 0.65
